One test relates to A549. Put plainly: Growth inhibition of human A549 cells after 48 hrs by MTS assay. It counts as functional, cell-based. Particulars: A549, 48 h. In general terms: Formazan colour is commonly taken as a measure of viable cells.
The subject of the next test is MCF7. Put plainly: Growth inhibition of human MCF7 cells after 48 hrs by MTS assay. To be noted: MCF7, 48 h. Format: functional, cell-based.

Here are results for 1 compound from ChEMBL document CHEMBL4138293, “Modified Abietane Diterpenoids from Whole Plants of Selaginella moellendorffii” (J Nat Prod, 2018).

For orientation: IC50 means the midpoint of a concentration-inhibition curve. A low value points to higher potency.

A value given as a limit tells only on which side of the number the result lay.

Take `CC(=O)O[C@H]1C(=O)[C@@]2(C)[C@H]([C@H](OC(=O)c3ccccc3)[C@]3(O)C[C@H](OC(=O)[C@H](O)[C@@H](NC(=O)c4ccccc4)c4ccccc4)C(C)=C1C3(C)C)[C@]1(OC(C)=O)CO[C@@H]1C[C@@H]2O` [PACLITAXEL]: the concentration for half-maximal inhibition (IC50) in the test on A549 and with MCF7 was less than 8 nM throughout.
